According to PubChem BioAssay AID2002 (Broad Institute, 2009):
Some of the results follow. Entries with a potency or affinity are not part of this list. The source made no clear call on entries shown without one.

Experiment: PubChem AID 2002
Conditions: H4 neuroglioma luciferase reporter, luminescence activation; at 12 µM (top of the series) unless noted

Structure (SMILES)	activation
O=C(Nc1ccc2ccccc2n1)c1ccccc1Br	203% [at 6 µM]
O=C(Cc1nc2ccccc2[nH]c1=O)c1ccccc1	95%
Cc1cc(/C=C2/C(=O)NN(c3ccccc3)C2=O)c(C)n1-c1ccc(O)cc1	51.2%
CCOc1ccc(-c2cc(C(=O)N/N=C(\C)c3cccnc3)c3ccccc3n2)cc1	32.9%
Cc1ccc2c(CC(=O)N3CCc4ccccc43)coc2c1	125%
COc1ccc(-n2nnnc2-c2nc3ccccc3s2)cc1	17.5%
O=C(N/N=C/c1sc(=O)n(-c2ccccc2)c1Cl)c1ccccc1	142% [at 6 µM]
Clc1c(CSc2nc3ccccc3o2)nc2ccccn12	-32.6%
O=C(Nc1cnc2ccccc2c1)N1CCCCC1	16%
COc1ccc(C2=NN(CN3C(=O)C(=O)c4ccccc43)C(c3ccc(OC)cc3)C2)cc1 (configuration not stated)	214%
CC(C)c1ccc(-c2cc(C(=O)N3N=C(C(F)F)CC3(O)C(F)F)c3ccccc3n2)cc1 (configuration not stated)	45%
Cc1cc2cc(OCc3ccccc3)ccc2n1C	151%
CCOC(=O)CSc1nc(-c2ccncc2)ccc1C#N	61.9%
CC(=O)N(/N=C1\Sc2ccccc2C1=O)c1ccccc1C	162%
Cc1ccc(C(=O)OCC(=O)c2cc(C)n(CC3CCCO3)c2C)cc1 (configuration not stated)	82.5%
N/C(=N\OC(=O)/C=C/c1ccccc1Cl)c1cccnc1	214%
Cc1cc(C(=O)CSc2nnnn2-c2ccccc2)c(C)n1CC1CCCO1 (configuration not stated)	104%
O=C1CCCc2nc3c(cc21)C(O)Oc1c-3ccc2ccccc12 (configuration not stated)	78%
Cc1[nH]c2ccccc2c1C(=O)/C=C/c1ccccc1Cl	139%

Structure (SMILES)	activation
CC1(C)Cc2c(sc(NC(=O)Nc3ccccc3)c2C(N)=O)CO1	120%
Cc1ccc(N=Nc2c(N)n(-c3ccccc3)[nH]c2=O)cc1	175%
Cc1cc(C(=O)NC2CCCCC2)c(C)n1-c1ccc(F)cc1	83.7%
COC(=O)Cc1c(OC)ccn(CCc2c[nH]c3ccccc23)c1=O	111%
Cc1ccsc1C(=O)Nc1ccc(OCc2ccccc2)cc1	178% [at 6 µM]
O=C(c1cnn(-c2ccc(Cl)cc2)c1)c1ccccc1O	32.7%
Cc1cc(-c2n[nH]c(=S)o2)c(C)n1-c1ccccc1	101%
CCc1sc(C(=O)Nc2ccc3c(c2)OCCO3)cc1Br	186% [at 6 µM]
O=C(Nc1ccc(Cl)cc1)c1ccc(OCC2CCCO2)cc1 (configuration not stated)	124%
CC(C)(C)c1ccc(NC(=O)Nc2ccc(F)cc2)cc1	149%
O=C(Cc1nc(=O)c2ccccc2s1)Nc1ccccc1	104%
O=C(Nc1nccs1)c1cc2c(s1)-c1ccccc1OC2	171%
COc1ccccc1C(=O)Nc1nnc(SCC(=O)NCC2CCCO2)s1 (configuration not stated)	75.8%
O=c1c(Cl)c(N/N=C/c2ccc(Cl)cc2)cnn1-c1ccccc1	66.1%
COCCNC(=O)/C(C#N)=C/c1cc(C)n(C2CCCCC2)c1C	51.6%
Cc1ccc2nc(C3CCCCC3)[nH]c2c1	113%
CCOc1cccc(-c2csc(C3COc4ccccc4O3)n2)c1 (configuration not stated)	139%
COc1ccc(/C(O)=C2/C(=O)C(=O)N(c3ccccn3)C2c2ccc(C(C)C)cc2)cc1 (configuration not stated)	131%
CCS(=O)(=O)c1nnnn1-c1ccccc1S(C)(=O)=O	40.5%

Structure (SMILES)	activation
Cc1ccc(N=c2c([N+](=O)[O-])nn(-c3ccccc3)n2O)c(C)c1	138%
O=C(Nc1cc(-c2ccccc2)[nH]n1)c1ccccc1F	156% [at 6 µM]
CCN1/C(=C\c2ccc3ccccc3[n+]2CC)Sc2cc(C)ccc21	-94.7%
O=C(Nc1ccccc1)N1CC=C(c2ccccc2)CC1	87.5%
Clc1nc(-c2ccccn2)nc2scc(-c3ccccc3)c12	69.1%
O=C(Nc1ncccc1O)c1ccc(Oc2ccccc2)cc1	55.7%
O=[N+]([O-])c1cccn2cc(-c3ccc(Br)cc3)nc12	210%
Cc1c(C(=O)Nc2ccccc2[N+](=O)[O-])csc1-c1ccccc1	42.4%
O=C(CCCc1ccccc1)NC12CC3CC(CC(C3)C1)C2	204%
c1ccc2nc(-c3ccc(-n4ccnc4)cc3)ccc2c1	19.4%
N#Cc1c(NC(=O)c2ccccc2)sc2c1CCC2	68.5%
Cc1ccc2c(c1)sc1nc(=O)n(-c3cccc(Cl)c3)c(=O)n12	119%
CCC(=C/c1sc2ccc3ccccc3c2[n+]1C)/C=C1\Sc2ccc3ccccc3c2N1C	-74.1%
c1ccc(OCCSc2nnnn2C2CCCCC2)cc1	47.3%
O=[N+]([O-])c1ccc2nc(-c3ccc(Cl)cc3)n(OCc3ccccc3)c2c1	112%
COc1ccc(Cn2c(C3CC3)nc3ccc(NC(=O)C4CC4)cc3c2=O)cc1	140%
Cc1cc(NC(=O)OC2CCCCC2)ccc1[N+](=O)[O-]	121%
CCc1ccc2oc(-c3cc(N=Cc4cccc(OC)c4O)ccc3O)nc2c1	-26.7%
COc1ccc(/C=C2\CCn3c2nc2ccccc2c3=O)cc1OC	143%

Three records drawn at random from those above, as already listed:
Structure (SMILES)	activation
N#Cc1c(NC(=O)c2ccccc2)sc2c1CCC2	68.5%
Cc1c(C(=O)Nc2ccccc2[N+](=O)[O-])csc1-c1ccccc1	42.4%
CCC(=C/c1sc2ccc3ccccc3c2[n+]1C)/C=C1\Sc2ccc3ccccc3c2N1C	-74.1%
